Results as given in the supplement of paper PMC10849652.
The list shows a part of the results.

By UniProt entry, the sequences of proteins in these tests, tags left out. Where a name states a change or a piece, a line headed by the entry shows the natural chain unless it says otherwise.
UniProt Q96CM3: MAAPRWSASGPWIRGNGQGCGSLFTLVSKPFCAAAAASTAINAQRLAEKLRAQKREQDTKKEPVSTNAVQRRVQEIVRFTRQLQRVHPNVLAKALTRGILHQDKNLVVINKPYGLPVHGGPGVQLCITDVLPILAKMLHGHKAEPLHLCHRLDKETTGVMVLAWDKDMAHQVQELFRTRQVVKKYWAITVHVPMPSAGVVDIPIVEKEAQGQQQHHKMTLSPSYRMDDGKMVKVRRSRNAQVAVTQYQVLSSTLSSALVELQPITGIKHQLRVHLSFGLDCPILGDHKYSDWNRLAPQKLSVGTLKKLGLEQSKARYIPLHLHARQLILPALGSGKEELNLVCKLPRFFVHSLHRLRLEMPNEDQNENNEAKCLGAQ
UniProt Q96EP0: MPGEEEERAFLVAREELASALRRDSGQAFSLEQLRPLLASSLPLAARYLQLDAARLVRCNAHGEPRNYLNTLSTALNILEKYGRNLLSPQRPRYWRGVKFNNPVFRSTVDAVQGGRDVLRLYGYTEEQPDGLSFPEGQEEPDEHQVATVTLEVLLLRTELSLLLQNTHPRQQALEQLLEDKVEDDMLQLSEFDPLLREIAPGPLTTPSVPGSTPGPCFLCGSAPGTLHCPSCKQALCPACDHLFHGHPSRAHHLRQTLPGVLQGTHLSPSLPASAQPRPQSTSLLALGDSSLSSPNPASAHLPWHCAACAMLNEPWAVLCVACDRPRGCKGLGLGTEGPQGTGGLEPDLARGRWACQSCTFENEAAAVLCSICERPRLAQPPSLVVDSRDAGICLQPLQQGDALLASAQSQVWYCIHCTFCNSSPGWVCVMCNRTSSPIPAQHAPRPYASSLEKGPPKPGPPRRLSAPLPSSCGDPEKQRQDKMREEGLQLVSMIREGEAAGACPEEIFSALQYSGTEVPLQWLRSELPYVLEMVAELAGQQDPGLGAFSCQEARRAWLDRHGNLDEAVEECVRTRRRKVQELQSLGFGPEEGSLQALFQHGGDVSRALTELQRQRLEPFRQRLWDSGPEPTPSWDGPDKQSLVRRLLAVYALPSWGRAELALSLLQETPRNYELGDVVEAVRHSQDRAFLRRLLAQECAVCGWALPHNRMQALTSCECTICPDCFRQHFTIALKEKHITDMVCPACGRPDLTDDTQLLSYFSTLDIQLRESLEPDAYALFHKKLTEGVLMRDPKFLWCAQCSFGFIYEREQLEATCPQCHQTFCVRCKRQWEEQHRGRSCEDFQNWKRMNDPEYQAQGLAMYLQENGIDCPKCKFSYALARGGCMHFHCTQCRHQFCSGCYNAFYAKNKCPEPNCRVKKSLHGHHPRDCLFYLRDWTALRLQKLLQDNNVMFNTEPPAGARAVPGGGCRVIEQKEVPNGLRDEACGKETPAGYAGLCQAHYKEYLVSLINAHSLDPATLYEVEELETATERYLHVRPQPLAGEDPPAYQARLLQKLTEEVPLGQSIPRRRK
UniProt Q9H6T3, whole entry, looked up: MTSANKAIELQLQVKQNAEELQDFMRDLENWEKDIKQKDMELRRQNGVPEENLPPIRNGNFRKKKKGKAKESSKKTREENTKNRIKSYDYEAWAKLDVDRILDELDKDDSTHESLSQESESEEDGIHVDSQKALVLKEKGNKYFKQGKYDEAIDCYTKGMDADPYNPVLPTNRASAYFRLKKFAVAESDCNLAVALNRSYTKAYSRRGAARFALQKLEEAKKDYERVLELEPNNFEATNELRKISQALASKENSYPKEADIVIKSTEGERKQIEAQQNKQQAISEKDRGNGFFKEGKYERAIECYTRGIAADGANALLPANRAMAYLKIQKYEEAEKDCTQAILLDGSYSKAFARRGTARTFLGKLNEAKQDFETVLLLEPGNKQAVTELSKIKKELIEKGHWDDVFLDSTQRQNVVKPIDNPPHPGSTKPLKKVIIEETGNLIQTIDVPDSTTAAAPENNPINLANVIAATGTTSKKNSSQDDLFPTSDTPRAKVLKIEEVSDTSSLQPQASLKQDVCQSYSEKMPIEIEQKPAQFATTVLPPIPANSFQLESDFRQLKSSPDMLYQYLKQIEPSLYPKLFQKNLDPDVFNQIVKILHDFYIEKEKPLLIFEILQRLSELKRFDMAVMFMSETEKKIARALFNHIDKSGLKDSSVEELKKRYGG
UniProt P08922: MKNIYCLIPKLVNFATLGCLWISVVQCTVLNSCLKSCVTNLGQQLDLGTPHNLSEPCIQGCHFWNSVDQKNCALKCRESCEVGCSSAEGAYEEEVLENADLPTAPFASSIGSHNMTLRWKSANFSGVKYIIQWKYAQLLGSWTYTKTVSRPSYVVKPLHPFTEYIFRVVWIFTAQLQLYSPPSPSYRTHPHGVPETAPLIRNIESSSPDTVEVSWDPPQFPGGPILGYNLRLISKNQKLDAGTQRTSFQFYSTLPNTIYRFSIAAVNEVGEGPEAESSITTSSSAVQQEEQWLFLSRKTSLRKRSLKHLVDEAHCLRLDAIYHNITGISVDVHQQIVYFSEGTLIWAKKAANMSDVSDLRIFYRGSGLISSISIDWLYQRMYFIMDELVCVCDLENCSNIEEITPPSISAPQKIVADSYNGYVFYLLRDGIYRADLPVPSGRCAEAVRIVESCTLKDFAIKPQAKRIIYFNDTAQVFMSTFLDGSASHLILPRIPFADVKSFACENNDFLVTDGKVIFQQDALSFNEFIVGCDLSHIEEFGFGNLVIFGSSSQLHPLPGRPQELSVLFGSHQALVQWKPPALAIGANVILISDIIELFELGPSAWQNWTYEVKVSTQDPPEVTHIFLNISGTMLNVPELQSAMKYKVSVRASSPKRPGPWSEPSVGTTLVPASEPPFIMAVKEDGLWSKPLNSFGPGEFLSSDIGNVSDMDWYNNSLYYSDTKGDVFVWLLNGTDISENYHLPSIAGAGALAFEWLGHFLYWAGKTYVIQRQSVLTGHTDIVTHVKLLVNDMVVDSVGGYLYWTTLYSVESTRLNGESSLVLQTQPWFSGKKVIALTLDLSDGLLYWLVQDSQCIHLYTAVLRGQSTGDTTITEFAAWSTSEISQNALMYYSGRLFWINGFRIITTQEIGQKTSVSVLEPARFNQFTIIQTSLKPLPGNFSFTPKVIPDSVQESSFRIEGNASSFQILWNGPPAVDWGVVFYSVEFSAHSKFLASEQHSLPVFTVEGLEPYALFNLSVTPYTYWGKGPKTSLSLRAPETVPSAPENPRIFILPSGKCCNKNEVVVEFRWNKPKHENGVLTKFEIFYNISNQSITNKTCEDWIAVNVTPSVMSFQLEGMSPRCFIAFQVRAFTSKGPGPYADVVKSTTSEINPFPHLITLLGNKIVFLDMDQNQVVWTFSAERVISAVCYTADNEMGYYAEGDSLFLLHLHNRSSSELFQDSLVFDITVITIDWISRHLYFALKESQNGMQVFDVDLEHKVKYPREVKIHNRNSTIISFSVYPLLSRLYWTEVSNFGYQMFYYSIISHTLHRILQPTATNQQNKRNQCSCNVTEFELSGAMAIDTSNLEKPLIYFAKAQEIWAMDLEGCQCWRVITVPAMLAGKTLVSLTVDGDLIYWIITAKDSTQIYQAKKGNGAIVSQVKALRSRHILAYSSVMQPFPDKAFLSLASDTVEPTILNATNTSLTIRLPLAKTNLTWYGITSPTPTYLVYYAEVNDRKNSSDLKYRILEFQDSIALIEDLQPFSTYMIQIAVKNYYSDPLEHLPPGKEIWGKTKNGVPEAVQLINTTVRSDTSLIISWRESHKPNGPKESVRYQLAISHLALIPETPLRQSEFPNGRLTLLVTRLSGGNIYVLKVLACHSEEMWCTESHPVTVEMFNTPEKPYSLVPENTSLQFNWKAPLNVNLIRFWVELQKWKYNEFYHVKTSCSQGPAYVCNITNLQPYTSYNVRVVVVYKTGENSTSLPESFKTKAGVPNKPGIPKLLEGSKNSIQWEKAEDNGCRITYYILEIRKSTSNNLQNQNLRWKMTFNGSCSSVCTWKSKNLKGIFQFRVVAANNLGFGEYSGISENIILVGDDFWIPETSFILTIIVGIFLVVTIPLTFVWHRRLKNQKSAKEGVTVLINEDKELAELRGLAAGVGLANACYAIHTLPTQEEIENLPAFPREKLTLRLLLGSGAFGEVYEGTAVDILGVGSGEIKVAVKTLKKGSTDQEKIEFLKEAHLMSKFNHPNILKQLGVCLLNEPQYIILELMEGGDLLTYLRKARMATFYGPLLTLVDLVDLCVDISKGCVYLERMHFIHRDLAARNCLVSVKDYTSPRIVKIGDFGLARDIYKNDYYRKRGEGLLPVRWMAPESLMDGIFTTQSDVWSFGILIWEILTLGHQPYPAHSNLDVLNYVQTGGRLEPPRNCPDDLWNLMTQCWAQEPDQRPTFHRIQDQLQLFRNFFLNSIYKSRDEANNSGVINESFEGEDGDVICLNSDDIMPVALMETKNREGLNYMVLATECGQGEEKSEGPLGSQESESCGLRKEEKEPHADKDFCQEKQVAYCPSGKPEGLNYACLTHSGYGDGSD
UniProt P78317: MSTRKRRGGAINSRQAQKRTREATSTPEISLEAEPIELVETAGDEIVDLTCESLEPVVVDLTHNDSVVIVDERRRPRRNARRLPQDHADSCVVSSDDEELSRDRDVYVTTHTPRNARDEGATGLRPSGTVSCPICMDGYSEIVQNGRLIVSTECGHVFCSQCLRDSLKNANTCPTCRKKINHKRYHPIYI
UniProt P05386, whole entry, looked up: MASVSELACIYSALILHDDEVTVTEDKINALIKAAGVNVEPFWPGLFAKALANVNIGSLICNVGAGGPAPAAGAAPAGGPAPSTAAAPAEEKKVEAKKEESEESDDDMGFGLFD
UniProt Q9HB90, whole entry, looked up: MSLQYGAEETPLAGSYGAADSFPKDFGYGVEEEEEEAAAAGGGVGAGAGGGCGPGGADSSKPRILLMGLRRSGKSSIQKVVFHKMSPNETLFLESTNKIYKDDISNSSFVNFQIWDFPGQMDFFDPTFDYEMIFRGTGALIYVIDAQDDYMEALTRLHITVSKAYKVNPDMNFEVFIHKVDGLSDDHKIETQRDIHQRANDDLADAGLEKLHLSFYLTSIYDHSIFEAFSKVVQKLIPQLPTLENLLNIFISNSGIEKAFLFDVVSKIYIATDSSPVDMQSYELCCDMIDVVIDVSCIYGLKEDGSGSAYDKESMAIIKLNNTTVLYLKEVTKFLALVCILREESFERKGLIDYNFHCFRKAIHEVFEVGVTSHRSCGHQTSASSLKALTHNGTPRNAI
UniProt Q96BH1: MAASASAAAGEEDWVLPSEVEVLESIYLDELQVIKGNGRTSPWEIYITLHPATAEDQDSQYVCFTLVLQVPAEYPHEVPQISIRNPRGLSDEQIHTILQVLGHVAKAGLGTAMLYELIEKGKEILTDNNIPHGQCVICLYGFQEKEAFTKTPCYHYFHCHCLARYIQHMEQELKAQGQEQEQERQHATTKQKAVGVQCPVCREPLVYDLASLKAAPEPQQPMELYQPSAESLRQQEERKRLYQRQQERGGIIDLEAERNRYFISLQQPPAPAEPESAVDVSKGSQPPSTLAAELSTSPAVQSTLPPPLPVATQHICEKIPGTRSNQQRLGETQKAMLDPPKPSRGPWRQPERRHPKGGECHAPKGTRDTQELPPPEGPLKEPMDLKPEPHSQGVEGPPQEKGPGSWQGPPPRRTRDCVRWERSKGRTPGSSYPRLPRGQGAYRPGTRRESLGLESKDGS
UniProt Q9Y225: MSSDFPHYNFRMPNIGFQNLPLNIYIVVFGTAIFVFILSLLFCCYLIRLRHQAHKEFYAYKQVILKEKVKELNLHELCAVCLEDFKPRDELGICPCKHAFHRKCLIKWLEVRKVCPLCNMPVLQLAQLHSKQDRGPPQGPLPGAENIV
UniProt P51812, whole entry, looked up: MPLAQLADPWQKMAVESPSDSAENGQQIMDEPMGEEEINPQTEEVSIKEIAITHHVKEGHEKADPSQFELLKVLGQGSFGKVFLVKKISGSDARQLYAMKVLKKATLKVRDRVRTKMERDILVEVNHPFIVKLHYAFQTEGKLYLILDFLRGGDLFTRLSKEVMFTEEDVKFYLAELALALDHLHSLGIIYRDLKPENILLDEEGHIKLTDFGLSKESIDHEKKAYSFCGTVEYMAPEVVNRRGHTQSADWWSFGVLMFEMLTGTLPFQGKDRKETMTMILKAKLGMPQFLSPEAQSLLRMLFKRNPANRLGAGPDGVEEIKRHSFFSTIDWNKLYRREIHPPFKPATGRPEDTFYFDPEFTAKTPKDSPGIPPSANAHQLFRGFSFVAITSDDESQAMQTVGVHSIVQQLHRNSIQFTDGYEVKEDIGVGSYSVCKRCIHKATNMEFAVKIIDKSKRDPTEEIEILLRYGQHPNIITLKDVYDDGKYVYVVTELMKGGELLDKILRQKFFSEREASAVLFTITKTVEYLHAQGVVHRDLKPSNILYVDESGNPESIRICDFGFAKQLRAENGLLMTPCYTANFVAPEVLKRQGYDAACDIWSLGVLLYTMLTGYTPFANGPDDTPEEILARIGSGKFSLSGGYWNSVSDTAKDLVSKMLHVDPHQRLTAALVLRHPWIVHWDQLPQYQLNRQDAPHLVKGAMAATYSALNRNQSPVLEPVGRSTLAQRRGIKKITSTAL

Key:
Experiment in all cases: log2 fold change, soluble protein after heating vs DMSO (PISA); higher = thermal stabilisation; K562 cells, 10 uM, 30 min; active = over 0.2 and 3.5 SD of the protein, either way, in both replicates (recomputed)
[1] = compound: CC1=C(SC2=C1C(=N[C@H](C3=NN=C(N32)C)CC(=O)N)C4=CC=C(C=C4)Cl)C
How it was run: (§1)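 K562 cells at 2×10^6 cells/mL were exposed to 10 μM compound for 30 min, then aliquots were heated for 3 min across 48°C-58°C, pooled, and extracted in PBS containing 0.5% NP-40 at 4°C. The supernatant after 21,000xg for 90 min was taken as soluble protein and measured by TMTpro 16plex LC-MS/MS with channel sums equalised. Thermal stability is reported relative to control samples, with values from duplicates. Fold changes are given on a log2 scale.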

[2] = compound: Cc1sc2c(c1C)C(c1ccc(Cl)cc1)=N[C@@H](CC(=O)OC(C)(C)C)c1nnc(C)n1-2
How it was run: as §1

[3] = compound: c1ccc([C@@H]2C[C@H]2NC2CCNCC2)cc1
How it was run: as §1

[4] = compound: C1=CC=C(C=C1)[C@H](COC2=CC3=C(C=C2)NC(=O)N3)NC(=O)C4=CC=CN(C4=O)CC5=CC(=C(C=C5)F)F
How it was run: as §1

[5] = compound: CC1=C2C(=CC=C1)N=C(N(C2=O)C3=CC=CC=C3C)CN4C=NC5=C(N=CN=C54)N
How it was run: as §1

Measured: log2 fold change

RPLP0 (UniProt F8VWV4)
inactive: [1] -0.134 | [2] 0.329 | [3] 0.024

RPP38 (UniProt P78345)
inactive: [4] -0.008 | [1] -0.039 | [5] 0.028 | [2] 0.044 | [3] 0.046

RPL11 (UniProt P62913)
inactive: [4] 0.204 | [1] -0.457 | [5] -0.487 | [2] 0.316 | [3] -0.001

RPUSD4 (UniProt Q96CM3)
inactive: [1] -0.094 | [2] 0.204 | [3] -0.035

RNF31 (UniProt Q96EP0)
inactive: [5] 0.095 | [2] 0.155

RPL30 (UniProt P62888)
inactive: [4] 0.236 | [1] -0.551 | [5] -0.581 | [2] 0.295 | [3] 0

RPRD1A (UniProt Q96P16)
inactive: [5] 0.064 | [2] -0.2

RPL10A (UniProt P62906)
inactive: [4] 0.253 | [1] -0.523 | [5] -0.735 | [2] 0.333 | [3] -0.001

RPS7, A0A2R8Y623
inactive: [4] -0.009 | [5] -0.965 | [2] -0.475

RPS24 isoform 4 (UniProt P62847)
inactive: [4] 0.116 | [1] -0.215 | [5] -0.196 | [2] 0.145 | [3] 0.023

RPGR (UniProt Q92834)
inactive: [2] -0.022

RPS7 (UniProt P62081)
inactive: [4] 0.077 | [1] -0.181 | [5] -0.224 | [2] 0.159 | [3] 0.019

ROGDI (UniProt Q9GZN7)
inactive: [1] 0.033 | [3] -0.125

RPAP3 (UniProt Q9H6T3)
inactive: [4] -0.095 | [1] 0.029 | [5] 0.052 | [2] 0.029 | [3] -0.016

RPS6 (UniProt P62753)
inactive: [4] 0.116 | [1] -0.241 | [5] -0.687 | [2] 0.116 | [3] 0

ROS1 (UniProt P08922)
inactive: [4] -0.137 | [1] 0.107 | [3] 0.021

RNF4 (UniProt P78317)
inactive: [4] 0.056 | [2] -0.151

RPL27 (UniProt P61353)
inactive: [4] 0.208 | [1] -0.532 | [5] -0.696 | [2] 0.249 | [3] 0

RPS2 (UniProt P15880)
inactive: [4] 0.123 | [1] -0.222 | [5] -0.222 | [2] 0.113 | [3] 0

RPLP1 (UniProt P05386)
inactive: [4] 0.159 | [1] -0.389 | [5] -0.739 | [2] 0.172 | [3] 0.199

RNF26 (UniProt Q9BY78)
inactive: [4] 0.005 | [5] -0.104

RPRD2 (UniProt Q5VT52)
inactive: [4] -0.364 | [5] 0.019 | [2] 0.085

RRAGC (UniProt Q9HB90)
inactive: [4] 0.009 | [1] 0.104 | [5] 0.095 | [2] -0.041 | [3] 0.009

RPL7L1 (UniProt Q6DKI1)
inactive: [4] 0.088 | [5] -0.072

RP9 (UniProt Q8TA86)
inactive: [4] 0.117 | [1] -0.102 | [2] 0.094 | [3] -0.031

RPS19 (UniProt M0R2L9)
inactive: [2] 0.183

RREB1 isoform 2 (UniProt Q92766)
inactive: [4] 0.042 | [1] -0.065 | [5] 0.055 | [2] 0.046 | [3] -0.043

RNF25 (UniProt Q96BH1)
inactive: [4] -0.008 | [1] 0.019 | [5] 0.1 | [2] -0.044 | [3] -0.024

RPAP2 (UniProt Q8IXW5)
inactive: [1] 0.052 | [2] 0.001 | [3] -0.119

RNF24 isoform 2 (UniProt Q9Y225)
inactive: [4] -0.118 | [5] -0.324

RPS3 (UniProt E9PJN9)
inactive: [2] 0.141

RPS6KA3 (UniProt P51812)
inactive: [4] -0.044 | [1] 0.05 | [5] 0.036 | [2] -0.034 | [3] -0.006

RPS3A (UniProt D6R9B6)
inactive: [2] 0.248

2 records picked at random from those above, as already listed:
RPS6KA3 (UniProt P51812)
inactive: [4] -0.044 | [1] 0.05 | [5] 0.036 | [2] -0.034 | [3] -0.006

RPS3A (UniProt D6R9B6)
inactive: [2] 0.248

The listing continues:

RPL29 (UniProt P47914)
inactive: [4] 0.22 | [1] -0.517 | [5] -0.579 | [2] 0.239 | [3] 0
